Results published in PMC7862700.
The entries are a selection whose mix differs from that of the whole data set. At the low end of the ranking the order means little.

target: T1, ELK3 (UniProt P41970); assay: DAPPL (digital affinity profiling via proximity ligation, sequencing); details: 10 mM Tris-HCl pH 7.5, 50 mM NaCl, 1 mM DTT, 4% glycerol, room temperature, 30 min; GST-TFs on glutathione beads, 16-mer random dsDNA library, 0.1% …; high values mean tight binding; double strand, one strand shown; scale: fold enrichment (6-mer frequency, TF over GST control)
T1 sequence: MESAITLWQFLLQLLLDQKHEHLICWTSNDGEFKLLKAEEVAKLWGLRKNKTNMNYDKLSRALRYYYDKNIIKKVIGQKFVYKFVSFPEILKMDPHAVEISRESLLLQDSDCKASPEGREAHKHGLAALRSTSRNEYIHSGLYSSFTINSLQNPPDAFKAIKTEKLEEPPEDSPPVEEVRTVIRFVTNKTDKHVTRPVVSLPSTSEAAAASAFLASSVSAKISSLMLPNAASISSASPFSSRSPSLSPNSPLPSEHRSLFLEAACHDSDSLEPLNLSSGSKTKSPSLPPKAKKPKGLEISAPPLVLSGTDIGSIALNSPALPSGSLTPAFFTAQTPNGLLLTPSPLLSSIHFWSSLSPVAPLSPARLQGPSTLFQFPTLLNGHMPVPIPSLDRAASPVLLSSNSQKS

Row | Sequence | binding signal
1 | ATGGTA | 1.36
2 | AGCTCC | 1.17
3 | TATTCG | 0.974
4 | TAGTCT | 0.968
5 | TGAACT | 1.19
6 | CTGCCA | 1.08
7 | AATAGC | 1.1
8 | ATCTCT | 1.3
9 | GATATA | 1.17
10 | GGCTAG | 1
11 | TTCTTC | 2.25
12 | CTCCGG | 1.6
13 | GCGACT | 1.25
14 | AATCAT | 0.998
15 | CTGACT | 1.26
16 | TATGGA | 1.12
17 | CTTGAC | 1.23
18 | CCCATT | 1.41
19 | ATCTGT | 1.07
20 | TTGATA | 1.01

2 entries picked at random from the list so far, as already listed:
Row | Sequence | binding signal
13 | GCGACT | 1.25
9 | GATATA | 1.17

(further entries)

Row | Sequence | binding signal
21 | ATCACT | 1.18
22 | TAGCGG | 1.08
23 | CTCAGA | 1.02
24 | GCTGAA | 0.994
25 | GTTCTT | 1.35
26 | TTAGAA | 1.06
27 | ACCAAC | 1.18
28 | TTAAAG | 1.09
29 | TACTTT | 1.11
30 | TTAAAC | 1.31
31 | TCTGTT | 1.15
32 | GTTTGG | 0.999
33 | GATTAT | 1.07
34 | CTGTTA | 1.32
35 | TCTACT | 1.28
36 | ACATAC | 1.17
37 | AAAAGG | 0.986
38 | ATCTAC | 1.27
39 | GCTCTG | 0.973
